The values below come from PMC7982829.

By UniProt entry, the sequences of proteins in these tests, tags left out.
UniProt P50990: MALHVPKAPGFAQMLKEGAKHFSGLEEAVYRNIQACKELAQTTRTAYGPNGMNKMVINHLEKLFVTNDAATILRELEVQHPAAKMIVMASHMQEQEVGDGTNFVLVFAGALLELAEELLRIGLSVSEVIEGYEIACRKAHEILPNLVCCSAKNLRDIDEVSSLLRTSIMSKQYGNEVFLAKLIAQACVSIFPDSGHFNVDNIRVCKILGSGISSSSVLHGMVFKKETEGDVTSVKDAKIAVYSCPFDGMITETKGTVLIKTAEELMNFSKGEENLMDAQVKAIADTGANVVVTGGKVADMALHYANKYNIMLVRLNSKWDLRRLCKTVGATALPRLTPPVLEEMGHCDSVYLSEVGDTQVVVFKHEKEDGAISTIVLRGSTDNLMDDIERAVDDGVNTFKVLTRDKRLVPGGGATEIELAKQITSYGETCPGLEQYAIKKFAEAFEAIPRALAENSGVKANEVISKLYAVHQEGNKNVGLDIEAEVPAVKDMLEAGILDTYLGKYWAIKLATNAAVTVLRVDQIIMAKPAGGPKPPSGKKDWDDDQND

These are yes or no findings as the source states them, for the method shown. In cells and extracts the contact can be indirect. These calls come from enrichment with a bait or labelling near it, and not all partners need be listed. Sequences can lack the tags named with a protein.

The target of the test is T1, Flag-TULP2 (tubby-like protein 2 with Flag label) (UniProt P46686).
T1 sequence: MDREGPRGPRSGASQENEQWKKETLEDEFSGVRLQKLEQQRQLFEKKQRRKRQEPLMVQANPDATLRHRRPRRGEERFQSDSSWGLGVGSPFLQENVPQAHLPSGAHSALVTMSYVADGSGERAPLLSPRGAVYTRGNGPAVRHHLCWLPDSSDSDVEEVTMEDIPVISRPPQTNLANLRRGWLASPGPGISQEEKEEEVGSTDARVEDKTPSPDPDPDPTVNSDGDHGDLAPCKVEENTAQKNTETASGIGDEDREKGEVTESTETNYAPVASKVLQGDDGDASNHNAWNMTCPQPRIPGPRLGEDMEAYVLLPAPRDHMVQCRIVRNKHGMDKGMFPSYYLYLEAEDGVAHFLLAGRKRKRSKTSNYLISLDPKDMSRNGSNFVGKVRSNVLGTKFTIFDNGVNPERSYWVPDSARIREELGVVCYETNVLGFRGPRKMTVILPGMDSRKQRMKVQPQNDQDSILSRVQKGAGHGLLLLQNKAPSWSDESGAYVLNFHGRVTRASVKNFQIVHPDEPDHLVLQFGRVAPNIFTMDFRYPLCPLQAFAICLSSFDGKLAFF
As to the kind of experiment: affinity purification with mass spectrometry; HEK293T cells transfected with the Flag-TULP2 overexpression plasmid (empty vector plasmid as control), collected 48 h after transfection for immunoprecipitation; immunoprecipitates analysed by mass spectrometry, MaxQuant search against the UniProt human proteome.

As for “CCT8 (T-complex protein 1 subunit theta), endogenous in HEK293T (from UniProt P50990 1-548)”, the binding entry was “binds”.
